Some of the results follow. Residues, ends and D or L forms follow the SMILES beside them. *: point of attachment. Cbz = O=C(OCc1ccccc1)*
How the values were obtained:
Assay in all cases: log2 fold change, soluble protein after heating vs DMSO (PISA); higher = thermal stabilisation; K562 cells, 10 uM, 30 min; active = over 0.2 and 3.5 SD of the protein, either way, in both replicates (recomputed)
erlotinib = compound: C#Cc1cccc(Nc2ncnc3cc(OCCOC)c(OCCOC)cc23)c1 [erlotinib]
Summary of the method: (§1)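 For each measurement, 10 μM compound was applied for 30 min to K562 cells at 2×10^6 cells/mL. Aliquots were heated for 3 min across 48°C-58°C, pooled, and extracted in PBS with 0.5% NP-40 at 4°C; the supernatant after 21,000xg for 90 min was soluble protein. This was quantified by TMTpro 16plex LC-MS/MS with channel sums equalised, and thermal stability was reported relative to control samples from duplicates, on a log2 fold-change scale.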

Chains of the proteins cited; added tags and fusions are not shown. Lines headed by an entry give the natural chain unless they say otherwise; changes in a name come on top.
UniProt Q969H6: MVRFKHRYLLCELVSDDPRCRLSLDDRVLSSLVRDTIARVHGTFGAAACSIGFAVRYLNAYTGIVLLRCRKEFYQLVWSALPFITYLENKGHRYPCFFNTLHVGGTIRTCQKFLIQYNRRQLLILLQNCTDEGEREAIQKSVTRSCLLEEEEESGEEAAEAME
UniProt Q9HAB8: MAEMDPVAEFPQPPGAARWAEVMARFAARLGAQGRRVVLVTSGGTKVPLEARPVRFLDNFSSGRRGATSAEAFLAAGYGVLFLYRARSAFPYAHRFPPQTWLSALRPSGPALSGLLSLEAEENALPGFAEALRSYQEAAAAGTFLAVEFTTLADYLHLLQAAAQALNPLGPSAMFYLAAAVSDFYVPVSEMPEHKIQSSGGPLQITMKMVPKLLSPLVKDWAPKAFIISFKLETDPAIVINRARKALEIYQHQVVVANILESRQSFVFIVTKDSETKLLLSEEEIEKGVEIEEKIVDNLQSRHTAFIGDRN
UniProt O15031: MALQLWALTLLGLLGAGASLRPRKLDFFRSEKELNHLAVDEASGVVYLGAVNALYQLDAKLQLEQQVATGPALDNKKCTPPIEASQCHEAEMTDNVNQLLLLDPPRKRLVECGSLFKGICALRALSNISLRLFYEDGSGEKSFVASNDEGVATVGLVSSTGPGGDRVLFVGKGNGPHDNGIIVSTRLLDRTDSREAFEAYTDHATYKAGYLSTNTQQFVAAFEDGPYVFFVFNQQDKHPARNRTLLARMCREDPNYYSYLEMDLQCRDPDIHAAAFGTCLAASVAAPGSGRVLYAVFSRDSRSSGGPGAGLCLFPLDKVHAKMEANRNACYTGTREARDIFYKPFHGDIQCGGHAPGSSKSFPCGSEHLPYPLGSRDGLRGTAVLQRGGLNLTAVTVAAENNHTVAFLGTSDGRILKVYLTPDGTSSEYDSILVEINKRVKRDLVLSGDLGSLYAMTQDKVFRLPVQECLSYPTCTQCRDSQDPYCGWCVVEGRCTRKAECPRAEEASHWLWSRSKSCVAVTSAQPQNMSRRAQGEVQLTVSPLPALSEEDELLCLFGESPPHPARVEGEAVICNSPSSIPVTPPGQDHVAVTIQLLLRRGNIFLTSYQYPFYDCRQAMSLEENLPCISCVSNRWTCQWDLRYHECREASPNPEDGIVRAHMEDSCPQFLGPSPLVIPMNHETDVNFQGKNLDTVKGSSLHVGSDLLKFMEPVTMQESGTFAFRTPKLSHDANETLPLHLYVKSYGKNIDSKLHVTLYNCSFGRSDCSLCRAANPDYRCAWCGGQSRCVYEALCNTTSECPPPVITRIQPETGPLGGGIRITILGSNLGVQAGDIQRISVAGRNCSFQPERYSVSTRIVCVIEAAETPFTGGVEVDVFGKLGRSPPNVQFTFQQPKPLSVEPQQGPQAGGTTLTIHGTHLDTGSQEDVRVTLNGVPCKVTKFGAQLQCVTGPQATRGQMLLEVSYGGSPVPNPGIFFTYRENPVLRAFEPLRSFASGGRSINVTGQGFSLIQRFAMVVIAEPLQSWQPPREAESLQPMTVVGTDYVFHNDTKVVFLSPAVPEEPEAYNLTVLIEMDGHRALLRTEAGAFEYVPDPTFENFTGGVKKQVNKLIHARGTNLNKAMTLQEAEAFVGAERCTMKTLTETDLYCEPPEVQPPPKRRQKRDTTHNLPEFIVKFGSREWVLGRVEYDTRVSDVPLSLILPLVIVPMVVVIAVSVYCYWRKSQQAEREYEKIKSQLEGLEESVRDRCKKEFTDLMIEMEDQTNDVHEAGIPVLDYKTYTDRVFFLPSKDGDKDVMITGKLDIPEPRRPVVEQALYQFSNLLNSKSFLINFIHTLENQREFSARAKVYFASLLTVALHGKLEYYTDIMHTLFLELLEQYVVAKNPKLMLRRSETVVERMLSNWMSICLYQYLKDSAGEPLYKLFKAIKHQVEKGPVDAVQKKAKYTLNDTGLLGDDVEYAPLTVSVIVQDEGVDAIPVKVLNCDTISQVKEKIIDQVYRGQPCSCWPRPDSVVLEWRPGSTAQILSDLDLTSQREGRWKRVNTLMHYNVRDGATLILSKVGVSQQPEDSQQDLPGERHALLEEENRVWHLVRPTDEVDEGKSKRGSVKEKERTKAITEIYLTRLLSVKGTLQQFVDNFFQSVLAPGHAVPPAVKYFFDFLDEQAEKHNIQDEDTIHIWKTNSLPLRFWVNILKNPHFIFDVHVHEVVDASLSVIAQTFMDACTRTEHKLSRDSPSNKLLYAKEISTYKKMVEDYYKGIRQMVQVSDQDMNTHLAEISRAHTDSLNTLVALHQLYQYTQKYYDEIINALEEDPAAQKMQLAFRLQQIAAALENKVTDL
UniProt P54098: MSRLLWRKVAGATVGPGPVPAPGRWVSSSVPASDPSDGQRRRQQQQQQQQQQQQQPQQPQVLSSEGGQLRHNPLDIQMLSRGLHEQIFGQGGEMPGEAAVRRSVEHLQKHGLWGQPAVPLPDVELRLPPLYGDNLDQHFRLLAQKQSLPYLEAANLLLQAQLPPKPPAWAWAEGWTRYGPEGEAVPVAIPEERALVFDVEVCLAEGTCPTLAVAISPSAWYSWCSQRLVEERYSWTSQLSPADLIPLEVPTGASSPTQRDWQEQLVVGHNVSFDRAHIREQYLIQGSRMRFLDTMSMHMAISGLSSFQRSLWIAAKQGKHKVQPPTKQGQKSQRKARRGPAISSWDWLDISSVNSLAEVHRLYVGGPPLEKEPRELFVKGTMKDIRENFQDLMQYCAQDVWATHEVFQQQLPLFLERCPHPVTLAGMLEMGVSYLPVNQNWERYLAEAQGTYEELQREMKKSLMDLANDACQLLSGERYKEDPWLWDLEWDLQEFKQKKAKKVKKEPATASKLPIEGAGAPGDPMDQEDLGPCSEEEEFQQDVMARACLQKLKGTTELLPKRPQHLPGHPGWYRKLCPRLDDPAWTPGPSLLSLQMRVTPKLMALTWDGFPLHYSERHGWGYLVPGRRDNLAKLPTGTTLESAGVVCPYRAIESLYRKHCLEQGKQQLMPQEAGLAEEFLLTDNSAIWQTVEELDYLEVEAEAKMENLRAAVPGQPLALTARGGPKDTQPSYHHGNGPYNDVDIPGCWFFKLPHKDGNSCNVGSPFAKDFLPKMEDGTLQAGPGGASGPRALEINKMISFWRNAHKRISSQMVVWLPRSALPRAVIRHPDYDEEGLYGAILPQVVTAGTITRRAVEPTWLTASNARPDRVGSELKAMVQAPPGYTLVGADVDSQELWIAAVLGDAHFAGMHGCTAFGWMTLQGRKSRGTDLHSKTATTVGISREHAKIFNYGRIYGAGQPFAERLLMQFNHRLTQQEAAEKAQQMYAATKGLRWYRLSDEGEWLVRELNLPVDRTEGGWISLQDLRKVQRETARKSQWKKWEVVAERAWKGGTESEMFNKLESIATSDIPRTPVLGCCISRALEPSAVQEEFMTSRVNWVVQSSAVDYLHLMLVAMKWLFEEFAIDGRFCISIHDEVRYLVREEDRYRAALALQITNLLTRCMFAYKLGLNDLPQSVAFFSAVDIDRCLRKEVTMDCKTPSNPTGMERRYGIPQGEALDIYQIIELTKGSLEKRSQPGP
UniProt P62937, whole entry, looked up: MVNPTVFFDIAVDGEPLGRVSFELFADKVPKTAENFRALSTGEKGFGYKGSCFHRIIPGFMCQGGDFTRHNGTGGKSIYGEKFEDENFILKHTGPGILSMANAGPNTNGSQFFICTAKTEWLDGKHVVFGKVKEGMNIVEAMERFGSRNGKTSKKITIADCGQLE
UniProt P16435: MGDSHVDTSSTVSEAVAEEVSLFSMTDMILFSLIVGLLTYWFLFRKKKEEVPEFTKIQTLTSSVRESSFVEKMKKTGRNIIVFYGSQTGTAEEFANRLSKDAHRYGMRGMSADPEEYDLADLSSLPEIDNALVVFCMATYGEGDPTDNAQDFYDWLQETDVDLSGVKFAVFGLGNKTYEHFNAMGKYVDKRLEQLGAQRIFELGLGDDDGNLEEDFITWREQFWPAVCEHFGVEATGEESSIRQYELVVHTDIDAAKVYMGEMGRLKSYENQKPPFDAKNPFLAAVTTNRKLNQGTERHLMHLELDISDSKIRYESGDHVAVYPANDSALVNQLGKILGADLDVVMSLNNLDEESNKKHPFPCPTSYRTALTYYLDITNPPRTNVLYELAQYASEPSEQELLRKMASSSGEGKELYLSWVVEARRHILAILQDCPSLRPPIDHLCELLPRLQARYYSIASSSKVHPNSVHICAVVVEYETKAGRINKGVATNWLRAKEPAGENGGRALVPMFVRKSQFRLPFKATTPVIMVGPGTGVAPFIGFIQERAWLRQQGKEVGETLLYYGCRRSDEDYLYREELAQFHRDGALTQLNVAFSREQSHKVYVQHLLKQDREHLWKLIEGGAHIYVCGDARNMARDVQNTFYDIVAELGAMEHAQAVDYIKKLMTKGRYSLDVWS
UniProt O14802: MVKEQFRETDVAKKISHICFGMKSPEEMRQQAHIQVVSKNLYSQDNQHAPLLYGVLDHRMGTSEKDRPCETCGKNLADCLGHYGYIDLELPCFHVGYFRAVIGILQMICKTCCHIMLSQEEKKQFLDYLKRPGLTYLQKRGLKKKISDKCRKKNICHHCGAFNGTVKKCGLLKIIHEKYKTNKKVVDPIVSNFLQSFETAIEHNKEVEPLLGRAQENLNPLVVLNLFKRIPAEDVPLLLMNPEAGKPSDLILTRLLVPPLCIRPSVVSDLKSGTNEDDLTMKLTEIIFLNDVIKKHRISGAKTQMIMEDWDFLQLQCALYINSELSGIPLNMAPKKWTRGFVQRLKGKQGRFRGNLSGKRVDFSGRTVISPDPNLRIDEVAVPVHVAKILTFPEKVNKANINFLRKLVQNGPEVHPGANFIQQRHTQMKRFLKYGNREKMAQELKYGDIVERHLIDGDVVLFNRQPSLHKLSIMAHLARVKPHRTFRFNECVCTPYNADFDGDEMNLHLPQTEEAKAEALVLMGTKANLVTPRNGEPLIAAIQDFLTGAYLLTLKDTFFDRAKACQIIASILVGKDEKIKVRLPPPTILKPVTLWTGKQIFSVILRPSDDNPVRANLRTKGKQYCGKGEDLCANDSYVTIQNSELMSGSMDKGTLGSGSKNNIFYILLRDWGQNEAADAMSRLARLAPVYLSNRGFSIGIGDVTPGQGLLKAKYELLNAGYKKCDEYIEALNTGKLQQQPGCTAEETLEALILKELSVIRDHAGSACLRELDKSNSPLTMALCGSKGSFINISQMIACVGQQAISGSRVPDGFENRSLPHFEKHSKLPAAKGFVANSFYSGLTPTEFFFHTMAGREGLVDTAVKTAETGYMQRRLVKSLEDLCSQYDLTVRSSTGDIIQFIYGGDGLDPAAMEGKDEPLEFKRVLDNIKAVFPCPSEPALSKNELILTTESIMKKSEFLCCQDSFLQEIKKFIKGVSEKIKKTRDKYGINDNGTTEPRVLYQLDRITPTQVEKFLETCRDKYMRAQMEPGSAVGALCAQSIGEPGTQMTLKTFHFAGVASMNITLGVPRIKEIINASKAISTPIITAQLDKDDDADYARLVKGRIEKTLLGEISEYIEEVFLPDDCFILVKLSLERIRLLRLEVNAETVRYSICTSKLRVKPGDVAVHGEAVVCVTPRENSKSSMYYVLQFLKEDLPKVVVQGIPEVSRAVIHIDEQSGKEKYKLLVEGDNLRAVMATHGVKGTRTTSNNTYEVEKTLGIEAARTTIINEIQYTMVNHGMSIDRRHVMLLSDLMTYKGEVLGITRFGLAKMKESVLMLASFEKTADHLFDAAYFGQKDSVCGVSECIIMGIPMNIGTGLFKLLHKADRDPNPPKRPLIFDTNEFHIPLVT
UniProt Q9Y2G5: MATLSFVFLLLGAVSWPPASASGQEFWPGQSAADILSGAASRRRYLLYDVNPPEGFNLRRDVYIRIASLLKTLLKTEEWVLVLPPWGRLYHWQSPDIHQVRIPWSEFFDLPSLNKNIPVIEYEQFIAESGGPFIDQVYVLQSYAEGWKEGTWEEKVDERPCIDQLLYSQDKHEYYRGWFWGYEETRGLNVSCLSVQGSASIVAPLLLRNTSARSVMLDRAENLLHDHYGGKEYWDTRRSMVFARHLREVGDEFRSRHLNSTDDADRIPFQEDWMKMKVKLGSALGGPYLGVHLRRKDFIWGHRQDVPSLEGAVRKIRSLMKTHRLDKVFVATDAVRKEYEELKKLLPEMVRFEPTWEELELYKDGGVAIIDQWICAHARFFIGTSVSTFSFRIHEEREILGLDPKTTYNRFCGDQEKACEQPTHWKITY
UniProt P0DPB6, whole entry, looked up: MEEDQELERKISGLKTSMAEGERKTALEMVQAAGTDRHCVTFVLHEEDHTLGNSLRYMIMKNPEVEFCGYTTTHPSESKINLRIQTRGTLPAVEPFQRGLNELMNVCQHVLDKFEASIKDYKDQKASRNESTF
UniProt Q96CD2: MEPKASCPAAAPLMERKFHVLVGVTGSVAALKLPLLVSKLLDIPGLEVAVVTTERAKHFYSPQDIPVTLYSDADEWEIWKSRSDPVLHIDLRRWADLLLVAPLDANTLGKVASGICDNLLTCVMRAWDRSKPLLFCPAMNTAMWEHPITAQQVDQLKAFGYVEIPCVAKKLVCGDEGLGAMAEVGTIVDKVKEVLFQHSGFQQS

[1] = compound: C/C(=N\NC(=O)C1=CC(=CC=C1)S(=O)(=O)N2CCOCC2)/C3=C(C=CC(=C3)Cl)O
Summary of the method: as §1

[2] = compound: C1=CC(=C(C=C1Cl)C2=NC3=NC=CN=C3C(=N2)NC4=CC=NC=C4)F
Summary of the method: as §1

[3] = compound: C1=CC(=CC=C1C2=NC3=C(N2)C=C(C=C3)C(=O)N)OC4=CC=C(C=C4)Cl
Summary of the method: as §1

[4] = compound: C1=CC2=C(C=CC(=C2)/C=C\3/C(=O)NC(=NCC4=CC=CS4)S3)N=C1
Summary of the method: as §1

[5] = compound: C1=CC2=NC=CN=C2C=C1/C=C/3\C(=O)NC(=O)S3
Summary of the method: as §1

[6] = compound: C1=CC=C(C=C1)C2=NC(=C(N2)C3=CC=NC=C3)C4=CC(=C(C=C4)Cl)O
Summary of the method: as §1

[7] = compound: C1=CC=C2C(=C1)C3=NNC4=CC=CC(=C43)C2=O
Summary of the method: as §1

[8] = compound: C1CCN(C1)C(=O)NC2=CC=CC(=C2)NC3=NC=C(C(=N3)NCCC4=CN=CN4)Br
Summary of the method: as §1

[9] = compound: C1CN(CCC1(CC2=CC=C(C=C2)Cl)N)C3=NC=NC4=C3C=CN4
Summary of the method: as §1

IRAK-1-4 Inhibitor I = compound: C1COCCN1CCN2C3=CC=CC=C3N=C2NC(=O)C4=CC(=CC=C4)[N+](=O)[O-] [IRAK-1-4 Inhibitor I]
Summary of the method: as §1

ibrutinib = compound: C=CC(=O)N1CCC[C@@H](n2nc(-c3ccc(Oc4ccccc4)cc3)c3c(N)ncnc32)C1 [ibrutinib]
Summary of the method: as §1

[10] = compound: CC(=O)c1cnc2ccc(-c3cc(Cl)c(O)c(Cl)c3)nc2c1N[C@H]1CC[C@H](CN(C)C)CC1
Summary of the method: as §1

ralimetinib = compound: CC(C)(C)Cn1c(N)nc2ccc(-c3[nH]c(C(C)(C)C)nc3-c3ccc(F)cc3)nc21 [ralimetinib]
Summary of the method: as §1

[11] = compound: CC(C)(O)CC(=O)NCCn1ccc2ncnc(Nc3ccc(Oc4cccc(C(F)(F)F)c4)c(Cl)c3)c21
Summary of the method: as §1

[12] = compound: CC(C)C1=C2N=C(C=C(N2N=C1)NCC3=CC=CC=C3)NCCCCCCN
Summary of the method: as §1

[13] = compound: CC(C)C[C@@H](C=O)NC(=O)[C@H](CC(C)C)NC(=O)[C@H](CC(C)C)NC(=O)OCc1ccccc1
Summary of the method: as §1

pinometostat = compound: CC(C)N(C[C@H]1O[C@@H](n2cnc3c(N)ncnc32)[C@H](O)[C@@H]1O)[C@H]1C[C@@H](CCc2nc3cc(C(C)(C)C)ccc3[nH]2)C1 [pinometostat]
Summary of the method: as §1

[14] = compound: CC1=C(C(CC(=O)N1)C2=CC=C(C=C2)C(F)(F)F)C(=O)NC3=C(C=C4C(=C3)C=NN4)F
Summary of the method: as §1

[15] = compound: CC1=C(C2=C(C=C1)C(=O)C3=CC=CC=C3N2CCCN)C
Summary of the method: as §1

Measured: log2 fold change

POP5 (UniProt Q969H6)
inactive: erlotinib -0.098 | [1] 0.032 | [2] -0.003 | [3] 0.082 | [4] -0.071 | [5] 0 | [6] -0.021 | [7] 0.025 | [8] -0.009 | [9] -0.022 | IRAK-1-4 Inhibitor I 0.005 | ibrutinib 0.083 | [10] -0.004 | ralimetinib 0.019 | [11] -0.094 | [12] 0.1 | [13] -0.022 | pinometostat -0.043 | [14] -0.028 | [15] -0.065

POLR2H (UniProt P52434)
inactive: erlotinib 0.023 | [1] -0.007 | [2] -0.001 | [3] 0.025 | [4] 0.043 | [5] 0.074 | [6] -0.034 | [7] 0.002 | [8] 0.005 | [9] -0.073 | IRAK-1-4 Inhibitor I 0.016 | ibrutinib 0.012 | [10] 0.102 | ralimetinib 0.048 | [11] -0.071 | [12] -0.024 | [13] 0.048 | pinometostat 0.039 | [14] -0.008 | [15] 0.037

PPCS (UniProt Q9HAB8)
inactive: erlotinib 0.004 | [1] 0.048 | [2] 0.015 | [3] -0.015 | [4] 0.02 | [5] -0.01 | [6] 0.005 | [7] -0.006 | [8] -0.03 | [9] 0.052 | IRAK-1-4 Inhibitor I 0.029 | ibrutinib -0.007 | [10] -0.034 | ralimetinib -0.048 | [11] -0.058 | [12] 0.036 | [13] -0.021 | pinometostat -0.019 | [14] -0.031 | [15] 0.065

PPFIA1 (UniProt Q13136)
inactive: erlotinib 0.003 | [1] 0.119 | [2] 0.004 | [3] 0.067 | [4] 0.008 | [5] 0.119 | [6] -0.105 | [7] -0.003 | [8] 0.104 | [9] 0.098 | IRAK-1-4 Inhibitor I -0.072 | ibrutinib -0.131 | [10] -0.166 | ralimetinib 0.045 | [11] -0.067 | [12] -0.136 | [13] 0.119 | pinometostat 0.067 | [14] 0.123 | [15] 0.184

PLXNB2 (UniProt O15031)
inactive: erlotinib 0.025 | [1] 0.018 | [2] 0.022 | [3] 0.003 | [4] 0.035 | [5] 0.016 | [6] -0.001 | [7] 0.005 | [8] -0.032 | [9] 0.043 | IRAK-1-4 Inhibitor I -0.007 | ibrutinib 0.025 | [10] -0.069 | ralimetinib -0.006 | [11] -0.053 | [12] 0.003 | [13] 0.02 | pinometostat 0.058 | [14] -0.069 | [15] 0.084

POLR3E (UniProt Q9NVU0)
inactive: erlotinib 0.063 | [1] 0.108 | [2] -0.136 | [3] 0.043 | [4] 0.037 | [5] 0.07 | [6] -0.053 | [7] 0.021 | [8] -0.124 | [9] -0.186 | IRAK-1-4 Inhibitor I -0.131 | ibrutinib -0.008 | [10] 0 | ralimetinib 0.051 | [11] -0.054 | [12] -0.258 | [13] 0.086 | pinometostat 0.169 | [14] -0.049 | [15] 0.27

PLS3 (UniProt P13797)
inactive: erlotinib 0.01 | [1] -0.043 | [2] 0.014 | [3] -0.018 | [4] 0.043 | [5] -0.006 | [6] -0.085 | [7] -0.032 | [8] 0.011 | [9] 0.021 | IRAK-1-4 Inhibitor I 0.012 | ibrutinib -0.016 | [10] -0.029 | ralimetinib -0.105 | [11] 0.007 | [12] 0 | [13] 0.031 | pinometostat -0.03 | [14] 0.023 | [15] -0.027

POLG (UniProt P54098)
inactive: erlotinib 0.052 | [1] -0.213 | [2] 0.035 | [3] 0.039 | [4] 0.308 | [5] 0.012 | [6] -0.175 | [7] -0.208 | [8] -0.102 | [9] 0.191 | IRAK-1-4 Inhibitor I 0.136 | ibrutinib -0.034 | [10] -0.129 | ralimetinib -0.213 | [11] -0.089 | [12] -0.031 | [13] 0.058 | pinometostat 0.115 | [14] -0.074 | [15] -0.022

POLR1C (UniProt O15160)
inactive: erlotinib 0.03 | [1] 0.042 | [2] -0.07 | [3] -0.046 | [4] -0.013 | [5] 0.022 | [6] -0.025 | [7] 0.034 | [8] -0.045 | [9] -0.142 | IRAK-1-4 Inhibitor I -0.066 | ibrutinib -0.049 | [10] 0.013 | ralimetinib 0.071 | [11] -0.074 | [12] -0.204 | [13] 0.037 | pinometostat 0.063 | [14] 0.017 | [15] 0.051

PPIA (UniProt P62937)
inactive: erlotinib -0.036 | [1] 0.044 | [2] 0.064 | [3] -0.05 | [4] 0 | [5] 0.01 | [6] 0.026 | [7] 0.033 | [8] 0.009 | [9] 0.01 | IRAK-1-4 Inhibitor I 0.02 | ibrutinib -0.006 | [10] -0.01 | ralimetinib -0.001 | [11] -0.021 | [12] -0.017 | [13] -0.011 | pinometostat -0.057 | [14] -0.007 | [15] 0.012

POR (UniProt P16435)
inactive: erlotinib 0.004 | [1] 0.07 | [2] 0.045 | [3] -0.013 | [4] -0.011 | [5] 0.017 | [6] 0.016 | [7] 0.02 | [8] 0.002 | [9] 0.076 | IRAK-1-4 Inhibitor I 0.024 | ibrutinib -0.003 | [10] -0.051 | ralimetinib -0.014 | [11] -0.058 | [12] 0.049 | [13] -0.005 | pinometostat -0.013 | [14] -0.045 | [15] -0.026

POLR3A (UniProt O14802)
inactive: erlotinib 0.094 | [1] 0.002 | [2] -0.05 | [3] -0.036 | [4] -0.005 | [5] 0.014 | [6] 0.027 | [7] 0.017 | [8] -0.067 | [9] -0.045 | IRAK-1-4 Inhibitor I -0.096 | ibrutinib -0.025 | [10] 0.067 | ralimetinib -0.014 | [11] -0.048 | [12] -0.049 | [13] 0.071 | pinometostat 0.08 | [14] 0.112 | [15] 0.175

PLOD1 isoform 2 (UniProt Q02809)
inactive: erlotinib -0.072 | [1] -0.045 | [2] -0.126 | [3] 0.003 | [4] -0.002 | [5] -0.029 | [6] -0.062 | [7] 0.019 | [8] -0.035 | [9] -0.152 | IRAK-1-4 Inhibitor I -0.112 | ibrutinib -0.041 | [10] 0.021 | ralimetinib 0.025 | [11] 0.035 | [12] -0.016 | [13] 0.025 | pinometostat 0.08 | [14] 0.024 | [15] -0.04

POFUT2 (UniProt Q9Y2G5)
inactive: erlotinib -0.056 | [1] -0.017 | [2] -0.069 | [3] 0.006 | [4] 0.043 | [5] 0.01 | [6] -0.044 | [7] -0.033 | [8] -0.023 | [9] 0.054 | IRAK-1-4 Inhibitor I -0.06 | ibrutinib -0.03 | [10] -0.037 | ralimetinib 0.044 | [11] 0.039 | [12] -0.074 | [13] -0.002 | pinometostat 0.07 | [14] -0.007 | [15] 0.014

Quoted from the results shown (2 entries):
POLR3A (UniProt O14802)
inactive: erlotinib 0.094 | [1] 0.002 | [2] -0.05 | [3] -0.036 | [4] -0.005 | [5] 0.014 | [6] 0.027 | [7] 0.017 | [8] -0.067 | [9] -0.045 | IRAK-1-4 Inhibitor I -0.096 | ibrutinib -0.025 | [10] 0.067 | ralimetinib -0.014 | [11] -0.048 | [12] -0.049 | [13] 0.071 | pinometostat 0.08 | [14] 0.112 | [15] 0.175

PLOD1 isoform 2 (UniProt Q02809)
inactive: erlotinib -0.072 | [1] -0.045 | [2] -0.126 | [3] 0.003 | [4] -0.002 | [5] -0.029 | [6] -0.062 | [7] 0.019 | [8] -0.035 | [9] -0.152 | IRAK-1-4 Inhibitor I -0.112 | ibrutinib -0.041 | [10] 0.021 | ralimetinib 0.025 | [11] 0.035 | [12] -0.016 | [13] 0.025 | pinometostat 0.08 | [14] 0.024 | [15] -0.04

The listing continues:

POLR1D (UniProt P0DPB6)
inactive: erlotinib 0.05 | [1] 0.014 | [2] 0.077 | [3] -0.035 | [4] 0.015 | [5] -0.056 | [6] 0.065 | [7] -0.128 | [8] 0.043 | [9] -0.037 | IRAK-1-4 Inhibitor I -0.065 | ibrutinib -0.021 | [10] 0.089 | ralimetinib 0.052 | [11] -0.148 | [12] -0.109 | [13] 0.146 | pinometostat 0.058 | [14] -0.017 | [15] 0.033

PPCDC (UniProt Q96CD2)
inactive: erlotinib 0.02 | [1] 0.003 | [2] -0.036 | [3] -0.102 | [4] 0.095 | [5] -0.05 | [6] 0.047 | [7] 0.009 | [8] -0.198 | [9] 0.033 | IRAK-1-4 Inhibitor I 0.029 | ibrutinib -0.002 | [10] -0.03 | ralimetinib -0.075 | [11] -0.052 | [12] 0.063 | [13] -0.045 | pinometostat -0.104 | [14] 0.018 | [15] 0.03

Source: the supplement of paper PMC10849652
